Test results as given in the supplement of paper PMC5949888.
Most values lie at the floor of the assay. Slopes are relative: functional sequences can read slightly below zero.

Tested on: Saccharomyces cerevisiae PS128 hsf1 delta, HSF1(1-493) fusion
Assay: growth estimate (transactivation domain function in HSF1 fusion, heat-shock survival) (a.u. (slope of normalised read count over time)); higher = stronger growth at 37°C, i.e. more transactivation activity
Conditions: library: random library
Procedure: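 Random 60-nt DNA library encoding peptides of up to 20 aa, fused to the C-terminus of yeast HSF1 residues 1-493 (C-terminal TAD deleted) and expressed from the native HSF1 promoter on a CEN plasmid in hsf1-deleted S. cerevisiae PS128. Cells were selected at 37°C on -trp 5-FOA plates for 0, 2, 4, 6 and 8 days and amplicons were sequenced. Growth estimate is the slope of a robust linear fit of total-sum-normalised read counts (normalised to the first time point) over time, using at least 2 replicates. Sequences are classed functional (TAD activity) above a threshold of -0.13, set from stop-codon control sequences.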

Row | Substance | growth estimate
1 | AESREDWQWGRKTIKNARQV | < -0.25
2 | CISPDMSIAYWEGWWSL | 0.794
3 | SNKMIPISLA | < -0.25
4 | SEVNRASVTCPSPYVSRFLA | < -0.25
5 | DILFKRVGHTAEGDAGYHCH | < -0.25
6 | RAGPRARFVVA | < -0.25
7 | AVLKSSASLVPGFNPA | < -0.25
8 | ARATSWEKLPGPTAGFAA | < -0.25
9 | LVRLRHIRSRRSRGSSLLPH | < -0.25
10 | SFTREVSYNV | < -0.25
11 | EMGGWGPTLTHP | 0.0974
12 | LLGSSRGCAIASPAPCGGPG | < -0.25
13 | HKQMDSPLSGQPAPSFLKNH | < -0.25
14 | SSSAHT | < -0.25
15 | IPTQGKCSNYLTRAFPSAGR | < -0.25
16 | PHPWDHFSPNSSRVMSFRGG | < -0.25
17 | QGIREVTGCASPIHTNSVRP | < -0.25
18 | NLSCADVICLKFESPAPLFL | < -0.25
19 | GNFTALGGLAHQS | < -0.25
20 | IERLRGTRGDPKHWNLKYLI | < -0.25
21 | RAFLFPSGV | < -0.25
22 | TVLTIVIA | < -0.25
23 | ALSYVYSLLAY | < -0.25
24 | QDVALACRGCGRTGRTSKGL | < -0.25

Single entries from above:
growth estimate, SSSAHT is entered as < -0.25
growth estimate, ALSYVYSLLAY is entered as < -0.25
growth estimate, AESREDWQWGRKTIKNARQV is entered as < -0.25

(listing goes on)

Row | Substance | growth estimate
25 | GIAPHIKGSLGSIQQMVRFL | < -0.25
26 | NSVKV | < -0.25
27 | DIQKFRRVSGIVECV | < -0.25
28 | NSSDRKL | < -0.25
29 | LSPLV | < -0.25
30 | ERVQLLFTLRRLAMERSQDR | < -0.25
31 | ADVECG | < -0.25
32 | NLQITWSVALLDSLRGSVPA | < -0.25
33 | RRSVGAFAERRSMVGSYQWM | < -0.25
34 | KESKPIAGGVYLHVCGMIRW | < -0.25
35 | SNLLRPERLL | < -0.25
36 | GLDALIGPYLGPYSPCMG | -0.199
37 | VVEGNVQALRHAGSWGHSGK | < -0.25
38 | RDCRSWQFKRLIGP | < -0.25
39 | IGALQHRSG | < -0.25
40 | DPAGWANRLPWETFLSFRYS | < -0.25
41 | RSIVRMLGKTMP | < -0.25
42 | RVYMYVNIDRFAGIPHTEFM | < -0.25
43 | PSSGLGVRSCGPWCSAPSPP | < -0.25
44 | LLRSAKTGAIGSWVKSVTAP | < -0.25
45 | YQNVVYHGVLSETWLPPQGV | < -0.25
46 | VYMFKVWA | < -0.25
47 | KCPAVSRQSARIWRRSD | < -0.25
48 | GTHDEVAGGLTGPSEWRLVL | < -0.25

Row | Substance | growth estimate
49 | RNTSAPSYRVRGGLQYGTLT | < -0.25
50 | LCKYAVRNVSLRYAYESDLT | 0.0112
51 | PDLAVISNICYPAQADYGGL | < -0.25
52 | VLA | < -0.25
53 | VDYFVGPP | < -0.25
54 | AVLQTKLQPQVGLDVLAHSY | < -0.25
55 | GTRFKVWPGARTR | < -0.25
56 | CCGNPLRVSTRPLELRA | < -0.25
57 | RGVSKACFVGTYIT | < -0.25
58 | LVPGVKDCAIDRAWLCCW | < -0.25
59 | GYSMGGPRKFALAKAPMHAV | < -0.25
60 | VGETPPSGWARPYPYADAQC | < -0.25
61 | LETSPSPNPVYTGGN | < -0.25
62 | PCTPSYLTASKWQRIRAVCV | < -0.25
63 | SQGCNGGEELCIRGNERRLG | < -0.25
64 | PILG | < -0.25
65 | FVGSRVYIGAITGARGIGQG | < -0.25
66 | NSH | < -0.25
67 | VQAM | -0.181
68 | SKLFSERPTGTPQSRDKVRK | < -0.25
69 | AREALSLCADVRPLTGASDL | < -0.25
70 | FAVRVYAVFV | < -0.25
71 | SVVRSTQYIRTTLRNYSDPW | < -0.25
72 | RTEGDFCTEVGRRHGVGGPC | < -0.25

Row | Substance | growth estimate
73 | RCCTEISGTRRFIQSFGERM | < -0.25
74 | LPSQRQTWVSCIVQGIRC | < -0.25
75 | QAPIQVFGGSGLNTMQYPI | < -0.25
76 | DDG | < -0.25
77 | KTLSSPWFIRLRFPGKQFR | < -0.25
78 | HVL | < -0.25
79 | LLFVFWALKTSHVALRLGRL | < -0.25
80 | VRVKT | < -0.25
81 | ARVFNPVVLAVQNRMLPASN | < -0.25
82 | PLPHGRRRLGGGQAA | < -0.25
83 | AVGQFLEMSLDALPKSIQGA | < -0.25
84 | IWLA | < -0.25
85 | SGPSR | < -0.25
86 | PVCALGTRSVEYT | < -0.25
87 | ASGVRGIAGAYLGWVFGWGS | < -0.25
88 | KDWKRGWTKELIRHLGRTGK | < -0.25
89 | QATALDGSSGLSGEDSTFGL | < -0.25
90 | IKTIFIGGTCLSESIL | < -0.25
91 | AFPLLGLTVGAQIGRALSAG | < -0.25
92 | KRDSN | < -0.25
93 | RVERFGSPVARPGRASRLSS | < -0.25
94 | GTSPRRLCLAHIRQ | < -0.25
95 | VKSHQGWWLVSSCD | < -0.25
96 | GYANPHEVR | < -0.25

Random excerpt: two entries already listed
Row | Substance | growth estimate
53 | VDYFVGPP | < -0.25
80 | VRVKT | < -0.25

An excerpt of these results, comma-delimited.
Row,Substance,growth estimate
91,AFPLLGLTVGAQIGRALSAG,< -0.25
92,KRDSN,< -0.25
93,RVERFGSPVARPGRASRLSS,< -0.25

The list continues:

Row | Substance | growth estimate
97 | EFDGY | < -0.25
98 | REGHGGPQMSTRTA | < -0.25
99 | DLTPAARLAIASPEGSMNRV | < -0.25
100 | FEAMHGDASTMCTPNYSLIC | < -0.25
101 | LMCVDQWSSDTVTLRGGIRA | < -0.25
102 | SLTMGGDVVVEYS | -0.243
103 | KGLPGTGRLNAQATAELRST | < -0.25
104 | VQAFATGSDARITRGCSQMD | < -0.25
105 | ASNHLVDRGPVYVVSAAIYF | < -0.25
106 | ISKGLRLGSILARREPRAAC | -0.248
107 | GLSMRPSETDPAIADCRSEH | < -0.25
108 | GVAKGNYDGN | -0.246
109 | SSER | < -0.25
110 | EVCD | < -0.25
111 | ILRRFSKTQEGKNFRRL | < -0.25
112 | LCSRGNSLM | < -0.25
113 | TMRTRLVQHKWSGSCAYDLR | < -0.25
114 | DSFGDVVMLIWTSSLKHWRP | -0.245
115 | VSPRVRKPR | < -0.25
116 | RLYLRPFLELRAANRVKLKR | < -0.25
117 | REVWSATGSIARMPVVHIPP | < -0.25
118 | LWGTPQ | -0.243
119 | GPWRDLPFCDSRLRTGRVRS | < -0.25
120 | KPEIARLSLGFQS | < -0.25

Row | Substance | growth estimate
121 | RLNTGRTLLRLNIPGRSPSL | < -0.25
122 | KVTLIRD | < -0.25
123 | CIEAYQSVGYVGRILQVRTN | < -0.25
124 | DWRPLKVSVLT | < -0.25
125 | GQSVHAH | < -0.25
126 | LKVERH | < -0.25
127 | ILYHDDGMV | < -0.25
128 | QKFGTRRILCRRYRSAWNSQ | < -0.25
129 | HSQRNGNPGAV | < -0.25
130 | VSEWELSRVKESWPSVVYGV | < -0.25
131 | RGWSG | < -0.25
132 | TEEVINIMH | < -0.25
133 | TRVRPVGGGVTRHLFLTRAP | < -0.25
134 | QFVGEGTRDACICLYAGNGD | -0.0944
135 | LPKVGSEGKRMPQFYKKTGP | < -0.25
136 | CSDRLGNVIPTGVLLEISDR | -0.231
137 | GARTKLRDQVTSLVDVGFAS | < -0.25
138 | WAGRDQSGLGMIVSGSLRES | < -0.25
139 | LTPGKSPLYATRWYSDEYVD | < -0.25
140 | SLKSISPMRFPTASGCQEVR | < -0.25
141 | KVYCHP | < -0.25
142 | FRS | < -0.25
143 | FASWSVAQVNLRFCLTGEAS | < -0.25
144 | HPLGLPIGSTCTTTAALLCA | < -0.25

Row | Substance | growth estimate
145 | VKDKSYVLVAL | < -0.25
146 | TRIRTEALVAPRIRAPPRVA | < -0.25
147 | GVSRVHGHVAHATRAAGDFT | < -0.25
148 | FCGLPVTLMGPIHAPREWEA | < -0.25
149 | EAVKSGVRHDNVMTETLSIA | < -0.25
150 | RQPELLPTLTIDRAAMD | < -0.25
151 | HPR | < -0.25
152 | GINTVTC | < -0.25
153 | LFKVAVRGRTASSAARGFRL | < -0.25
154 | VHGTARAPFER | < -0.25
155 | LRYIRSGYIMQLTSPVVWHR | < -0.25
156 | YISRFHVDSK | < -0.25
157 | VGRVAEVLWTQISDTFECPG | < -0.25
158 | WAKRQTRQTISVRQVGELLR | < -0.25
159 | GVAN | < -0.25
160 | FNRRLL | < -0.25
161 | RMKGLQSGIRESGTP | < -0.25
162 | CKNRRACTREAVHDNYDRRA | < -0.25
163 | CPFRMYYSLRAPRCAAELSP | < -0.25
164 | THRYPHSHIPTTRNGFGFTV | -0.135
165 | HRLDYLSKQMRRVRLRSPL | < -0.25
166 | VVDRVAGKAVGFCST | < -0.25
167 | ELLGSRLKSGRTQSDL | < -0.25
168 | LQLDSQA | < -0.25

Row | Substance | growth estimate
169 | DLVHRLTKLVGICNAQRAVS | < -0.25
170 | RRGSLQAGREIVVMGTRCPL | < -0.25
171 | VVVYYTNLGGVPGSMKSVIS | < -0.25
172 | YFLHWSGFHLG | < -0.25
173 | IDKPPPHPGAVPGAGNSSGK | < -0.25
174 | RICLWYVATCR | < -0.25
175 | PEVVVLGNVA | < -0.25
176 | MNLERNRHCHRCNLFVWGQV | < -0.25
177 | AAGGRRATG | < -0.25
178 | PHAR | < -0.25
179 | SPLACAFLRRSHGPEDSGSR | < -0.25
180 | GSLVRKHPPWGPSVRVSPRC | < -0.25
181 | TATFGKGTKS | < -0.25
182 | MGIKAAVRGRTRGA | < -0.25
183 | YSFGQDGC | < -0.25
184 | IGI | < -0.25
185 | TPH | < -0.25
186 | ATCIYT | < -0.25
187 | IFAGLRTPSSTLHSVS | -0.243
188 | RKRRLKKGSGHKLGPRSKSG | < -0.25
189 | LHTP | < -0.25
